In PMC5589656, “Disruption of DNA repair in cancer cells by ubiquitination of a destabilising dimerization domain of nucleotide excision repair protein ERCC1” (Oncotarget, 2017):
No constants are given. Whether binding was seen depends on the method and setting. For part of these data: Binding seen in cells or lysates may run through a third protein. Some binding calls cover weakened binding; strength is not graded here. For part of these data: Where a sequence is shown, tags or fusion partners need not be part of it.

T1: ERCC1 (1-297), full-length wild-type human ERCC1, Myc-tagged and Flag-tagged copies (human) (UniProt P07992)
T1 sequence: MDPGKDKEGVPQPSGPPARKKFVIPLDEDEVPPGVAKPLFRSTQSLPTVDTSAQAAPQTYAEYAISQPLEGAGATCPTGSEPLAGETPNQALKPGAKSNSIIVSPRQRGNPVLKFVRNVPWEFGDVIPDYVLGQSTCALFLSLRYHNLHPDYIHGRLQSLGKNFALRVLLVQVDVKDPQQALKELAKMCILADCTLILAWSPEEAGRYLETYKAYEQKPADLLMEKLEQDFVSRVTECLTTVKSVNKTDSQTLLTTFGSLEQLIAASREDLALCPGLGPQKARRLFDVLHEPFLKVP


How the values were obtained:
[1] = target: T1, ERCC1 (1-297), full-length wild-type human ERCC1, Myc-tagged and Flag-tagged copies (human); assay: co-IP; A375 cells co-transfected with Myc-tagged and Flag-tagged ERCC1 constructs; 24 h later immunoprecipitation with anti-Myc antibody linked to magnetic beads; denaturing western blot with anti-Flag antibody; one co-transfected dish also treated with 25 uM cisplatin for 5 h
[2] = target: endogenous ERCC1 (human (endogenous in A375)) (UniProt P07992); assay: SEC + other: semi-native western blot; size exclusion chromatography of native lysates from non-transfected control and cisplatin-treated A375 cells; fractions run on denaturing and semi-native western blots for ERCC1 and XPF

binding [1] | binding [2] | Binder
binds | – | ERCC1 (1-297), full-length wild-type human ERCC1, Myc-tagged and Flag-tagged copies (natural protein, UniProt P07992 1-297, looked up, ERCC1, human, full length, residues 1-297 (297 amino acid protein); Self-association was tested with two differently tagged copies; Each copy carries only one of the two tags: the Myc-tagged copy was precipitated and the Flag-tagged copy was detected; The Myc copy is in pcDNA3.1(-)/myc-His A, which as far as I recall adds a C-terminal myc-His; Construct details are in the Supplementary …) MDPGKDKEGVPQPSGPPARKKFVIPLDEDEVPPGVAKPLFRSTQSLPTVDTSAQAAPQTYAEYAISQPLEGAGATCPTGSEPLAGETPNQALKPGAKSNSIIVSPRQRGNPVLKFVRNVPWEFGDVIPDYVLGQSTCALFLSLRYHNLHPDYIHGRLQSLGKNFALRVLLVQVDVKDPQQALKELAKMCILADCTLILAWSPEEAGRYLETYKAYEQKPADLLMEKLEQDFVSRVTECLTTVKSVNKTDSQTLLTTFGSLEQLIAASREDLALCPGLGPQKARRLFDVLHEPFLKVP
– | binds | endogenous ERCC1 (protein, UniProt P07992 1-297) MDPGKDKEGVPQPSGPPARKKFVIPLDEDEVPPGVAKPLFRSTQSLPTVDTSAQAAPQTYAEYAISQPLEGAGATCPTGSEPLAGETPNQALKPGAKSNSIIVSPRQRGNPVLKFVRNVPWEFGDVIPDYVLGQSTCALFLSLRYHNLHPDYIHGRLQSLGKNFALRVLLVQVDVKDPQQALKELAKMCILADCTLILAWSPEEAGRYLETYKAYEQKPADLLMEKLEQDFVSRVTECLTTVKSVNKTDSQTLLTTFGSLEQLIAASREDLALCPGLGPQKARRLFDVLHEPFLKVP
binds | – | Flag-tagged ERCC1 (1-219) truncation (domain or fragment, UniProt P07992 1-219) MDPGKDKEGVPQPSGPPARKKFVIPLDEDEVPPGVAKPLFRSTQSLPTVDTSAQAAPQTYAEYAISQPLEGAGATCPTGSEPLAGETPNQALKPGAKSNSIIVSPRQRGNPVLKFVRNVPWEFGDVIPDYVLGQSTCALFLSLRYHNLHPDYIHGRLQSLGKNFALRVLLVQVDVKDPQQALKELAKMCILADCTLILAWSPEEAGRYLETYKAYEQKP
